For 2 molecules, binding results are on record in PMC6092398, “Revealing circadian mechanisms of integration and resilience by visualizing clock proteins working in real time” (Nature Communications, 2018).

Sequences of proteins named here, by UniProt entry; tags and fusion partners are left off. Residues count along the entry.
UniProt P02769, residues 25-607: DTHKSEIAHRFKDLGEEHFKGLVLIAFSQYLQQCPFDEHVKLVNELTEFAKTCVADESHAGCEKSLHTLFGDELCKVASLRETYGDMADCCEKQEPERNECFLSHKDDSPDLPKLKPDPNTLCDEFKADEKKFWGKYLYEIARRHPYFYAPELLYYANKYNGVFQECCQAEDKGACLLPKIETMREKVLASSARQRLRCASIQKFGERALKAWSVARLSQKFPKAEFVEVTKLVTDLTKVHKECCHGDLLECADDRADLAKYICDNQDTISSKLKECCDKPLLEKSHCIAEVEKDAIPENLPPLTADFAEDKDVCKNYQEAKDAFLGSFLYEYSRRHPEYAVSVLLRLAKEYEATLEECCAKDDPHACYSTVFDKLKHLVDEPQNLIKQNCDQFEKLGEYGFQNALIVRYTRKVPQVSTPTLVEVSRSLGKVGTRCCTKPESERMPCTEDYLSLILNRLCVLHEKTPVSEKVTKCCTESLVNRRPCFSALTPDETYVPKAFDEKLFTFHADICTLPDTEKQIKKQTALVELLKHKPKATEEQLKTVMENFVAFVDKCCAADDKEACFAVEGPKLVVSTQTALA

Assay [1] has as its target T1, native wild-type KaiC hexamer (KaiC^WT) (S. elongatus) (UniProt Q79PF4).
T1 sequence: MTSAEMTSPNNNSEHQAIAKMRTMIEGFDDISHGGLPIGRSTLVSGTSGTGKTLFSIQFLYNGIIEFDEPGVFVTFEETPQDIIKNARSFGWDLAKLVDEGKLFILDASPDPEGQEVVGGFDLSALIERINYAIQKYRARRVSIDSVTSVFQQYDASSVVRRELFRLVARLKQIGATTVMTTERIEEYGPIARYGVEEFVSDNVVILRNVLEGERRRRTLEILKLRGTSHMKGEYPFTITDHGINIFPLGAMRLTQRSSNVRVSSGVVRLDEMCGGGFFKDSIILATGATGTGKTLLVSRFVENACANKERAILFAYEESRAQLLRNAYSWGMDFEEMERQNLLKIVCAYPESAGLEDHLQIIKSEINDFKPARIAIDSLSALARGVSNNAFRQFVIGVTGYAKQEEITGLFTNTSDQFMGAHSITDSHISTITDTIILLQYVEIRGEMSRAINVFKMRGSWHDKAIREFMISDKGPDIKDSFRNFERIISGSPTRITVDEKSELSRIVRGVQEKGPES
The assay can be described thus: high-speed atomic force microscopy (HS-AFM); BSA or GFP instead of KaiA with KaiC^WT hexamers (Supplementary Fig. 3); surface and concentrations not told in the text shown; both purified.

Assay [2] addresses T1, native wild-type KaiC hexamer (KaiC^WT) (S. elongatus). Briefly: condition: only KaiC^WT on bare mica, CI end up, C-terminal tentacles unavailable; high-speed atomic force microscopy (HS-AFM); KaiC hexamers immobilised on bare mica (CI end up, C-terminal side attached to the mica), KaiA added to the observation buffer; 20 mM Tris-HCl pH 8.0, 5 mM MgCl2, no ATP, 25-28 °C (Fig. 1a, c); both purified.

Results are given in words; binding and its absence hold for the method and conditions named.

Take “bovine serum albumin (BSA) (from UniProt P02769 25-607)”: the binding result in assay [1] was “no binding”.

B1: KaiA (natural protein, S. elongatus, UniProt Q79PF6 1-284, looked up)
chain: MLSQIAICIWVESTAILQDCQRALSADRYQLQVCESGEMLLEYAQTHRDQIDCLILVAANPSFRAVVQQLCFEGVVVPAIVVGDRDSEDPDEPAKEQLYHSAELHLGIHQLEQLPYQVDAALAEFLRLAPVETMADHIMLMGANHDPELSSQQRDLAQRLQERLGYLGVYYKRDPDRFLRNLPAYESQKLHQAMQTSYREIVLSYFSPNSNLNQSIDNFVNMAFFADVPVTKVVEIHMELMDEFAKKLRVEGRSEDILLDYRLTLIDVIAHLCEMYRRSIPRET
notes: circadian clock protein KaiA of Synechococcus elongatus, native (unmutated); also called native KaiA; KaiA dimer; source: E. coli BL21 or DH5α, pGEX-based construct, purified (glutathione-agarose, HRV3C cleavage on the column, Q Sepharose); not shown: GST, N-terminal, cleaved
Turning to B1, the binding entry in assay [2] is “no binding”.
